Source: US6762281 (dated 2004)

Legend:
peptide synthesis [1] = conditions: conjugation step, Na+ / OAc- salt
peptide synthesis [2] = conditions: conjugation step, Na+ / OAc- salt; remark: listed apart in the source

Row | Substance | conjugation yield (peptide synthesis [1]) [%] | final HPLC purity (peptide synthesis [2]) [%] | conjugation yield (peptide synthesis [2]; run 1) | difficulty met (peptide synthesis [1]) | final LC-MS purity (peptide synthesis [1]; reversed phase HPLC and ion exchange HPLC) [%]
1 | Conjugate of (TG)2ctat2c(tg)2A2T2 and Antennapaedia peptide (AcC(SH)-GABA-G2RQIKIWFQNR2MKWK2-amide) (SEQ ID NO: 7) | 80 |  |  |  | 
2 | SEQ ID No. 1 (13920-3′-Antp) conjugate; Antennapedia peptide: C(N-Ac)-GABA-GGRQIKIWFQNRLRMKWKK-amide |  | 95 | 80% and 60% |  | 
3 | SEQ ID No. 6 (102578-3′-RGD) conjugate; Bicyclic RGD peptide: 3-mercaptopropionyl-GABA-GGACDCRGDCFCG-amide | 62 |  |  | more than 40% of the starting material remained unreacted | 75

“And” between values parts separate entries of the source, which are not always exact repeats. Identical values can stand only once.
